This passage reports binding results from doi:10.1101/2020.04.24.059055.

Protein sequences, listed by entry. Tags and fused reporters are not part of them. Lines headed by an entry give the natural chain unless they say otherwise; changes in a name come on top. Residues count along the entry.
UniProt Q60793: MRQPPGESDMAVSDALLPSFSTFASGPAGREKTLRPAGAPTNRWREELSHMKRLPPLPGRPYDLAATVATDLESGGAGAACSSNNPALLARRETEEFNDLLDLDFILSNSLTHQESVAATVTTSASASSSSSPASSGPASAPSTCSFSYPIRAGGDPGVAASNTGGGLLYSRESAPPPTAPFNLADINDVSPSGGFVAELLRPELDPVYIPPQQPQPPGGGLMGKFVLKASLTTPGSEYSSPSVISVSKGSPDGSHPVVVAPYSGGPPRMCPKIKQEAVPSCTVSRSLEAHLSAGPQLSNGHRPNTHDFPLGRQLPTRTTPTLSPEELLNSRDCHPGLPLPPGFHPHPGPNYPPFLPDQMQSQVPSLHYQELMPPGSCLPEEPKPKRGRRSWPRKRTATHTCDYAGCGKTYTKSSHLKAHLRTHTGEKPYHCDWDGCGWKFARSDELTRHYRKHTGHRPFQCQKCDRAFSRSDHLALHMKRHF
GST-Klf4 401-483 aa: residues 401-483 of Q60793
UniProt O09106: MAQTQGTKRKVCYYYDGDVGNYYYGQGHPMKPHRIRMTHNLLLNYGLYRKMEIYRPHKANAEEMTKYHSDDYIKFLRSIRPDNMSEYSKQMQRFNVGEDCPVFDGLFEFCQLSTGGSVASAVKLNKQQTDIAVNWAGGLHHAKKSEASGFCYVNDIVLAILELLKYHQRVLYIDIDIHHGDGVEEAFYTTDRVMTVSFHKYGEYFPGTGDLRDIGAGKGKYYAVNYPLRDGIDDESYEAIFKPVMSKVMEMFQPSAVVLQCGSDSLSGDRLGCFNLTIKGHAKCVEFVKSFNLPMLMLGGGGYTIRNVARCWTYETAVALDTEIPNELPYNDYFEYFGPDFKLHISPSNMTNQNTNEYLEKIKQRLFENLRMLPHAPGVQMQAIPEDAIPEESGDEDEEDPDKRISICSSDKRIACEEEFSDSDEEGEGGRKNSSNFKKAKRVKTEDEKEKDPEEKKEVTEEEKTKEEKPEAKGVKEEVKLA
UniProt P70288: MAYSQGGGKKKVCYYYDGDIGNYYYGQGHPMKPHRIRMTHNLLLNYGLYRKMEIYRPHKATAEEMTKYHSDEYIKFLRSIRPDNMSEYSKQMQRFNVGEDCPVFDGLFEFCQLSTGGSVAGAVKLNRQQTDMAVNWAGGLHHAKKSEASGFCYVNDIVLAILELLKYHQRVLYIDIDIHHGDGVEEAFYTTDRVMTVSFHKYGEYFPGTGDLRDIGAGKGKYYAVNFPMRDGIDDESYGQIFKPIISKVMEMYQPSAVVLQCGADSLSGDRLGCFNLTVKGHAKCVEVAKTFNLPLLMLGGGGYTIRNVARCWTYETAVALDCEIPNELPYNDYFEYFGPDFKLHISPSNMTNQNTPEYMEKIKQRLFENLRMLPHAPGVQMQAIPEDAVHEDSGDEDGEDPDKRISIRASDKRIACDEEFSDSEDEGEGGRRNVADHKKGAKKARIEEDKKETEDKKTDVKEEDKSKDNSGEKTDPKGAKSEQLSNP
UniProt Q9JIF0: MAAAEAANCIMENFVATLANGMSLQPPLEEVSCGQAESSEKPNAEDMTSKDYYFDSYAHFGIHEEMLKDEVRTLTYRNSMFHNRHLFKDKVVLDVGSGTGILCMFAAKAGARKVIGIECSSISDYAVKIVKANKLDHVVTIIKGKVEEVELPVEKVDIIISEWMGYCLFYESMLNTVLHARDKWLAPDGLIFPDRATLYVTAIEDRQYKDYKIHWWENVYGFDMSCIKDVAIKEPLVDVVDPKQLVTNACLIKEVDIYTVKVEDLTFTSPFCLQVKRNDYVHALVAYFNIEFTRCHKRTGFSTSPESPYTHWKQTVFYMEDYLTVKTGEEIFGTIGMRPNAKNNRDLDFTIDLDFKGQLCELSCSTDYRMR

These are yes or no findings as the source states them, for the method shown. Binding seen in cells or lysates may run through a third protein. Some entries that bind do so weakly or less than the wild type.

The target in test [1] is FLAG-Klf4 (WT), in E14 cells (mouse) (UniProt Q60793). Kind of test: co-IP.
The target in test [2] is Klf4 (endogenous, E14 cells) (mouse (endogenous in E14)) (UniProt Q60793). Description: co-IP.
A further test concerns the target Myc-Klf4 (mouse) (UniProt Q60793). Kind of test: co-IP.
Test [3] deals with GST-Klf4 401-483 aa (mouse) (UniProt Q60793). Description: pull-down.

For the molecule “HDAC1 (from UniProt O09106 1-482) (enzyme)”, the binding entry in test [1] and in test [2] was “binds” in each case.

Consider “HDAC2 (from UniProt P70288 1-488) (enzyme)”, for which the binding entry in test [1] and in test [2] was “binds” in each case.

Regarding “FLAG-Prmt1 (from UniProt Q9JIF0 1-371) (enzyme)”, the binding entry (with Myc-Klf4 (mouse); in test [3]) was “binds” each time.

B1: mSin3a (protein, UniProt Q60520 1-1274)
chain: MKRRLDDQESPVYAAQQRRIPGSTEAFSHQHRVLAPAPPVYEAVSETMQSATGIQYSVAPNYQVSAVPQSSGSHGPAIAAVHSSHHHPTAVQPHGGQVVQSHAHPAPPVAPVQGQQQFQRLKVEDALSYLDQVKLQFGSQPQVYNDFLDIMKEFKSQSIDTPGVISRVSQLFKGHPDLIMGFNTFLPPGYKIEVQTNDMVNVTTPGQVHQIPTHGIQPQPQPPPQHPSQPSSQSAPTPAQPAPQPTAAKVSKPSQLQAHTPASQQTPPLPPYASPRSPPVQPHTPVTISLGTAPSLQNNQPVEFNHAINYVNKIKNRFQGQPDIYKAFLEILHTYQKEQRNAKEAGGNYTPALTEQEVYAQVARLFKNQEDLLSEFGQFLPDANSSVLLSKTTAEKVDSVRNDHGGTVKKPQLNNKPQRPSQNGCQIRRHSGTGATPPVKKKPKLMSLKESSMADASKHGVGTESLFFDKVRKALRSAEAYENFLRCLVIFNQEVISRAELVQLVSPFLGKFPELFNWFKNFLGYKESVHLESFPKERATEGIAMEIDYASCKRLGSSYRALPKSYQQPKCTGRTPLCKEVLNDTWVSFPSWSEDSTFVSSKKTQYEEHIYRCEDERFELDVVLETNLATIRVLEAIQKKLSRLSAEEQAKFRLDNTLGGTSEVIHRKALQRIYADKAADIIDGLRKNPSIAVPIVLKRLKMKEEEWREAQRGFNKVWREQNEKYYLKSLDHQGINFKQNDTKVLRSKSLLNEIESIYDERQEQATEENAGVPVGPHLSLAYEDKQILEDAAALIIHHVKRQTGIQKEDKYKIKQIMHHFIPDLLFAQRGDLSDVEEEEEEEMDVDEATGAPKKHNGVGGSPPKSKLLFSNTAAQKLRGMDEVYNLFYVNNNWYIFMRLHQILCLRLLRICSQAERQIEEENREREWEREVLGIKRDKSDSPAIQLRLKEPMDVDVEDYYPAFLDMVRSLLDGNIDSSQYEDSLREMFTIHAYIAFTMDKLIQSIVRQLQHIVSDEVCVQVTDLYLAENNNGATGGQLNSQTSRSLLESAYQRKAEQLMSDENCFKLMFIQSQGQVQLTVELLDTEEENSDDPVEAERWSDYVERYMSSDTTSPELREHLAQKPVFLPRNLRRIRKCQRGREQQEKEGKEGNSKKTMENVESLDKLECRFKLNSYKMVYVIKSEDYMYRRTALLRAHQSHERVSKRLHQRFQAWVDKWTKEHVPREMAAETSKWLMGEGLEGLVPCTTTCDTETLHFVSINKYRVKYGTVFKAP
As for B1, the binding entry in test [1] and in test [2] was “binds” each time.
